Measured values: PubChem BioAssay AID977622 (Broad Institute, 2014)
Hit rate of the full screen: of about 1,900 compounds, fewer than 10 were called active. Inconclusive results, whose numbers are uncertain, are shown with a selection of clear calls.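 How the source made its calls: active means Green signal of the normal strain falls at least twice as much as red signal of the resistant mutant, with overall culture growth loss under a set limit; inconclusive means no clear call, values can overlap the other calls; inactive means the rest.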

Assay: wild-type E. coli growth inhibition versus h38 humanized strain – h38 mutant RFP, wild-type GFP, cherry-pick, dose response (AID 977622)
Details: E. coli WT ribosome GFP fluorescence, mixed culture, 24 h; at 50 µM (top of the series)

Row | Structure (SMILES) | activity change, negative = inhibition
1 | Cc1cccc(-c2ccc([C@H]3[C@@H](CO)N4CCCCN(S(=O)(=O)c5ccccc5C)C[C@@H]34)cc2)c1 | inactive: -5.3
2 | C[C@H]1CN([C@@H](C)CO)C(=O)c2c(c3ccccc3n2C)-c2ccccc2CO[C@@H]1CN(C)Cc1ccccc1 | inconclusive: 9.63
3 | Fc1ccc(-n2cc(CNCCc3cccnc3)c(-c3ccccc3Cl)n2)cc1 | inconclusive: -18.8
4 | COc1ccc(C(=O)C[n+]2ccc3c(c2)nc(-c2cc(OC)c(OC)cc2OC)n3C)cc1 | inconclusive: -3.79
5 | CCCNC(=O)c1cc(C2CCCN(S(=O)(=O)c3cccc4cccnc34)C2)on1 (configuration not stated) | inconclusive: -13.5
6 | COc1ccccc1C1CC(=O)Oc2cc(C)c(Cl)cc21 (configuration not stated) | inconclusive: 3.25
7 | C#CCOc1nc(Nc2cccc([N+](=O)[O-])c2)nc(OCC#C)n1 | inconclusive: -0.517
8 | O=C(O)CC(CC(=O)Nc1ccc(Oc2ccccc2)cc1)c1ccccc1 (configuration not stated) | inactive: -14.5
9 | COc1ccc(NC(=O)COC(=O)CCCOc2ccc(Cl)cc2Cl)cc1Cl | inconclusive: -12.1
10 | CSCCC1NC(=O)N(C(C)C(=O)Nc2cc(Cl)cc(Cl)c2)C1=O (configuration not stated) | inconclusive: -21.6
11 | COc1ccccc1N1CCN(Cc2ccc(OC)c3ccccc23)CC1 | inconclusive: 1.57
12 | Cc1ccccc1S(=O)(=O)c1cc2ccccc2nc1N | inconclusive: -10.2
13 | COC(=O)c1c(C)oc(C)c1S(=O)(=O)Nc1ccc(C(C)C)cc1 | inconclusive: -1.79
14 | O=C(NCc1ccc2c(c1)OCO2)C1CCC(=O)N1C1CCCCC1 (configuration not stated) | inconclusive: 11.2
15 | C[C@@H]1CCCCO[C@H](CN(C)C(=O)CCCN(C)C)[C@@H](C)CN([C@@H](C)CO)C(=O)c2cc(NC(=O)Nc3cccc4ccccc34)ccc2O1 | inconclusive: 5.32
16 | Cc1cc(CNC(=O)c2cc(-c3ccccc3)nc3ccccc23)nn1C | inconclusive: -10.8
17 | O=C(C[C@@H]1CC[C@@H]2[C@H](COC[C@H](O)CN2C(=O)Nc2ccc(Cl)cc2)O1)NCc1ccncn1 | inconclusive: -40.8
18 | O=C(O)c1cccc2c1-c1ccc([N+](=O)[O-])cc1C2=O | inactive: -5.58
19 | Cc1ccc(NC(=O)c2ccc3c(c2)OCO3)cc1S(=O)(=O)N1CCOCC1 | inactive: 8.84
20 | c1ccc2c(c1)CSc1ccccc1N2 | inactive: -3.06
21 | CSc1ccccc1NC(=O)CN(C)CC(=O)c1c(C)[nH]c2ccccc12 | inconclusive: -30
22 | CC(NC(=O)c1c(N)[nH]c(C(=O)c2ccccc2)c1-c1ccccc1Br)c1cccc2ccccc12 (configuration not stated) | inactive: 5.49

Exported as labelled records: part of the list above
COc1ccccc1N1CCN(Cc2ccc(OC)c3ccccc23)CC1
  activity change, negative = inhibition: inconclusive: 1.57
COC(=O)c1c(C)oc(C)c1S(=O)(=O)Nc1ccc(C(C)C)cc1
  activity change, negative = inhibition: inconclusive: -1.79
